# Assay results reported in PubChem BioAssay AID1259415 (National Center for Advancing Translational Sciences (NCATS), 2018).
# The campaign covered roughly 410,000 compounds. About 18,000 (4.4%) were called active. The shares of active, inactive and inconclusive entries below differ from those in the screen. Cut-off read from the data, not from the text of the source: active = activity change below about -60%; inconclusive = no clear call, values can overlap the other calls; inactive = above about -39%.
# Assay: qHTS Assay for inhibitors of the human cytomegalovirus (HCMV)
# Conditions: HFF cells, HCMV-luciferase reporter, 72 h; at 57.5 µM; hits give low values
# Outline: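 HFF cells seeded 16 h at 37C, treated with compounds, infected with luciferase-reporter HCMV at MOI 1 PFU/cell; luciferase read at 72 h post infection, normalized to buffer-only and Salinomycin controls.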
# % is set by controls: 0 for no effect and ±100 for the full control effect.
row,SMILES,"activity change, negative = inhibition"
1,CCOc1ccc(-c2cnc(NCc3cccc(Cl)c3)n2C)cc1,inconclusive: -46.1%
2,COc1ccc(-c2cc3c(c4c2ccn4C)C2CCC3C2)cc1OC (stereo not drawn),active: -60.1%
3,COc1cc(OC)c2c(-c3ccccc3)cc(=O)oc2c1C(CC(=O)N1CCOCC1)c1ccc2c(c1)OCO2 (stereo not drawn),active: -94%
4,O=C(NCC(c1ccc(F)cc1)N1CCOCC1)c1cc(F)c(F)c(F)c1F (stereo not drawn),inconclusive: -44.6%
5,O=C(CN1CCC(C(=O)c2cccc(F)c2)CC1)NCc1cccs1,inconclusive: -49.9%
6,Cc1ccc(NS(=O)(=O)c2ccc3c(c2)oc(=O)n3C)cc1C,active: -101%
7,O=C(NC(Cc1c[nH]c2ccccc12)C(=O)O)OCC1c2ccccc2-c2ccccc21 (stereo not drawn),inconclusive: -50.2%
8,CCN(CC)CCCNC(=O)C1c2cc(OC)c(OC)cc2C(=O)N(C)C1c1cccs1 (stereo not drawn),inactive: -0.289%
9,Cc1ccc(C)c(Cn2nnc(C(=O)NCc3ccccc3)c2N)c1,inactive: -13.7%
10,COc1ccc(S(=O)(=O)N2CCOC2CNC(=O)C(=O)NCCc2ccccc2)cc1 (stereo not drawn),inconclusive: -58.1%
11,Oc1ccc(C[C@H]2CNC(=S)N2CC2CCCN2C[C@H](Cc2ccc(O)cc2)N2C[C@H](Cc3ccccc3)N(CC3CCCCC3)C2=S)cc1 (stereo partly drawn),inconclusive: -56.5%
12,Cn1c(=S)[nH]c2sc3c(c2c1=O)CCC(C(C)(C)C)C3 (stereo not drawn),active: -95.3%
13,COc1ccc(OCc2cc(/C=N\NC(=O)c3ccccc3)ccc2OC)cc1,inconclusive: -53.6%
14,CCCNC(=S)N1CCN(c2nc(C)nc3sc4c(c23)CCCC4)CC1,inconclusive: -40.8%
15,CC(=O)Nc1ccc([N+](=O)[O-])c(CS(=O)(=O)c2ccc(C)cc2)c1[N+](=O)[O-],inconclusive: -40.9%
16,Cc1cc(C)cc(NC(=O)COC(=O)c2n[nH]c3ccccc23)c1,inactive: 8.3%
17,CCC(=O)N1CCc2cc(S(=O)(=O)CCC(=O)N3CCN(c4ccccc4F)CC3)ccc21,inconclusive: -41.3%
18,CC(C)(C)c1ccc(OCCC(=O)Nc2cccc(S(=O)(=O)N3CCCCC3)c2)cc1,inconclusive: -56.7%
19,CCN(CC)c1ccc(NC(=O)c2cnn3c(C(F)F)cc(-c4ccccc4)nc23)cc1,inactive: -28.4%
20,O=C(Nc1cccc(C(F)(F)F)c1)C(Sc1ncnc2ccccc12)c1ccccc1 (stereo not drawn),inactive: 31.8%
21,COc1cc(/C=N/NC(=O)CC2(C)OCCCO2)ccc1OCc1ccccc1,inconclusive: -45.1%

row,SMILES,"activity change, negative = inhibition"
1,COc1cccc(C(=O)NN2c3ccccc3CCc3ccccc32)c1,inconclusive: -41.5%
2,CN1C(=O)N(C)C2(c3ccccc3)Nn3c(s/c(=C/c4ccco4)c3=O)=NC12c1ccccc1 (stereo not drawn),inactive: 45.2%
3,Cc1cc(C(=O)COC(=O)Cc2n[nH]c(=O)c3ccccc23)c(C)n1-c1cccc(C(F)(F)F)c1,inactive: -16.1%
4,CS(=O)(=O)N(CC(=O)N1CCOCC1)Cc1ccc(Cl)cc1,inactive: -33.1%
5,N/C(=N\OC(=O)c1cccs1)c1cccc(Br)c1,inactive: 16.9%
6,C[C@@H]1COc2cccc(N(C)CCO)c2S(=O)(=O)N1,inactive: -12.4%
7,COc1ccc(Br)cc1C(=O)Nc1ccc(C(=O)NCC(C)C)cc1,inconclusive: -45.7%
8,CC(=O)N1CCN(c2ccc(NC(=O)c3ccc([N+](=O)[O-])o3)cc2Cl)CC1,active: -98.4%
9,COc1ccc(OC)c(CNc2ncnc3onc(-c4ccc(Cl)cc4)c23)c1,inconclusive: -41.9%
10,CCC(c1nnnn1CCc1ccccc1)N(Cc1ccco1)Cc1cc2cc(C)cc(C)c2[nH]c1=O (stereo not drawn),active: -70.6%
11,O=[N+]([O-])c1ccc(Sc2nnnn2-c2ccccc2)c(Cl)c1,active: -73.1%
12,CCC(C(=O)NCCCc1ccccc1)c1ccccc1 (stereo not drawn),inconclusive: -53.3%
13,CCc1nc(SCC(=O)N2CCCC2)c2ccccc2n1,inconclusive: -40.2%
14,COc1ccc2c(c1OC)C(=O)N1N=C(c3ccc(-c4ccccc4)cc3)CC21 (stereo not drawn),inconclusive: -41.1%
15,C=C1[C@@H](O)[C@H](CC(C)C)N(Cc2ccccc2Br)S1(=O)=O,inactive: -32%
16,O=[N+]([O-])c1ccc(N2CCCCC2)nc1,inconclusive: 0%
17,CCCS(=O)(=O)c1c(S(=O)(=O)CCC)c2ccc(C(N)=O)cn2c1C(=O)c1ccc(F)cc1,inconclusive: -47.4%
18,O=C(Cc1ccccc1)NNc1c2ccccc2nc2ccccc12,active: -66.6%
19,CCn1c(=NC(=O)CS(=O)(=O)c2ccc(C)cc2)sc2cccc(OC)c21,active: -62.4%
20,Cc1cccc(N(CC(=O)NCCSc2ccccn2)S(=O)(=O)c2ccccc2)c1,inactive: -17.2%
21,C/C(=N\Nc1ccc(F)cc1)c1ccc(N2CCOCC2)c(F)c1,inconclusive: -51.7%

row,SMILES,"activity change, negative = inhibition"
1,Cc1c(C(=O)NCCc2ccc(Cl)cc2)sc2nc3n(c(=O)c12)CCCC3,inconclusive: -59.6%
2,Cc1ccc2c(c1)N(Cc1cccc(Cl)c1)C(=O)c1cccnc1O2,inconclusive: -49.5%
3,CC1CCN(C(=O)CSc2nnc3c(n2)[nH]c2ccccc23)CC1,inconclusive: -48.2%
4,CCc1ccccc1N(C1=NCCCS1)S(=O)(=O)c1ccc(C(C)(C)C)cc1,inactive: -16%
5,Cc1ccc(S(C)(=O)=O)cc1C(=O)OCC(=O)N1CCCC1=O,inconclusive: -40.8%
6,COc1ccc2occ(C(=O)c3cccs3)c2c1,inactive: 25.4%
7,COc1cc([N+](=O)[O-])cc(/C=N/NC(=O)C(O)(c2ccccc2)c2ccccc2)c1O,inactive: 8.09%
8,CCCCOc1ccc(CSC(=N)N)cc1[N+](=O)[O-],active: -63.8%
9,O=C(NC(=S)Nc1ccc(Cc2ccncc2)cc1)c1ccc(F)cc1,inconclusive: -58.3%
10,CS/C(Nc1cc(Cl)ccc1Cl)=C(/C#N)C(=O)c1ccco1,inactive: 97.3%
11,O=[N+]([O-])c1cccc(CSC2=NCCN2S(=O)(=O)c2ccccc2)c1,active: -74.4%
12,CCCS(=O)(=O)NC(=O)C1(C)CCCN(C(=O)c2ccc(C(F)(F)F)nc2C)C1 (stereo not drawn),inconclusive: -41.6%
13,COc1ccc(C2C(=O)c3ccccc3C2=Nc2ccc(Br)cc2)cc1 (stereo not drawn),inconclusive: -49.5%
14,Cc1cccc(N2CCc3c2nc2ccc(Br)cc2c3N)c1,inconclusive: -41.4%
15,COc1ccc(N2Cc3cccc(C(=O)Nc4ccc(F)cc4)c3C2=O)cc1,inconclusive: -47.5%
16,COc1cc2c(cc1[N+](=O)[O-])-c1ccccc1C2,active: -75.1%
17,CC1CCCN(S(=O)(=O)c2ccc(C(=O)Nc3nnc(-c4ccncc4)o3)cc2)C1 (stereo not drawn),active: -96.5%
18,COc1ccc(-n2ncc(C(=O)Nc3cccc(C(F)(F)F)c3)c2C2CCN(C(=O)OC(C)(C)C)CC2)cc1,inconclusive: 0%
19,C=C1C(=O)[C@]23C[C@H]1CCC2[C@@]1(C)C(C[C@@H]3O)[C@](C)(C(=O)OC)CC[C@@H]1O (stereo partly drawn),active: -102%
20,CCN(C(=O)CSc1cc(C)c2ccccc2n1)c1c(N)n(Cc2ccccc2)c(=O)[nH]c1=O,inconclusive: -46.1%
21,CC(=O)N1CCN(c2ccc(NC(=S)NC(=O)c3ccccc3)cc2)CC1,inactive: -25.2%

# 6 records drawn at random from the list so far, as already listed:
row,SMILES,"activity change, negative = inhibition"
2,Cc1ccc2c(c1)N(Cc1cccc(Cl)c1)C(=O)c1cccnc1O2,inconclusive: -49.5%
15,COc1ccc(N2Cc3cccc(C(=O)Nc4ccc(F)cc4)c3C2=O)cc1,inconclusive: -47.5%
19,C=C1C(=O)[C@]23C[C@H]1CCC2[C@@]1(C)C(C[C@@H]3O)[C@](C)(C(=O)OC)CC[C@@H]1O (stereo partly drawn),active: -102%
5,Cc1ccc(S(C)(=O)=O)cc1C(=O)OCC(=O)N1CCCC1=O,inconclusive: -40.8%
14,Cc1cccc(N2CCc3c2nc2ccc(Br)cc2c3N)c1,inconclusive: -41.4%
10,CS/C(Nc1cc(Cl)ccc1Cl)=C(/C#N)C(=O)c1ccco1,inactive: 97.3%

# Later entries

row,SMILES,"activity change, negative = inhibition"
1,COc1ccc(NC(=O)c2cc3c(=O)n(Cc4cccnc4)ccc3nc2C)cc1OC,inconclusive: -48.6%
2,O=C(Nc1ccc2oc(-c3ccncc3)nc2c1)c1ccc2c(c1)OCCO2,inconclusive: -54.1%
3,Cc1ccc(S(=O)(=O)N2CCOCC2)cc1C(=O)NC(=S)N1CC(C)CC(C)C1 (stereo not drawn),inactive: -31.8%
4,CN(CC(=O)Nc1ccccc1Cl)C(=O)C1CSC2(C)CCC(=O)N12 (stereo not drawn),inconclusive: -42.7%
5,O=C(NC(=S)Nc1ccc(CN2CCOCC2)cc1)c1ccc(-c2cccc(Cl)c2)o1,inconclusive: -59.3%
6,O=C(NC1CCCC1)C(c1ccccc1)N(Cc1cccnc1)C(=O)Cc1cccs1 (stereo not drawn),inactive: 30.2%
7,CCOC(=O)Cn1c(-c2cccnc2)nc(-c2ccccc2)c1-c1ccccc1,inconclusive: -46.6%
8,O=C(O)c1ccc(CSc2nnc(-c3ccncc3)n2-c2ccc(Cl)cc2)cc1,inconclusive: -50.9%
9,Cc1ccc(/C=N/Nc2ccc(C(=O)O)cc2)s1,active: -73.3%
10,COc1ccc(-c2ccc(CCC(=O)O)n2CC(=O)Nc2ccccc2C)cc1,inactive: 33.6%
11,COc1ccc(/C=C/C(=O)Nc2ccccc2)cc1S(=O)(=O)N1CCOCC1,inconclusive: -40.8%
12,CN(C)S(=O)(=O)c1cccc(NC(=O)c2cc(-c3cccs3)nn2-c2ccccc2)c1,inconclusive: -41.1%
13,CCCn1c(=NC(=O)CS(=O)(=O)c2ccccc2)sc2cc(S(C)(=O)=O)ccc21,inconclusive: -41.8%
14,COc1cc(-c2noc(CCC(N)=O)n2)cc(OC)c1OC,inactive: 63.9%
15,CCCCc1cc(=O)oc2cc(OCC(=O)N3CCC(C(N)=O)CC3)ccc12,inconclusive: -41.5%
16,COc1ccc(CCn2c(=N)c(S(=O)(=O)c3ccccc3)cc3c(=O)n4ccccc4nc32)cc1,inconclusive: -48.8%
17,O=C(NCC1CC1)c1onc(CSc2nc3ccccc3[nH]2)c1C(=O)NCC1CC1,inconclusive: -59.4%
18,CCOc1ccc(NC(=O)C2CCCN(S(=O)(=O)c3ccc4[nH]c(=O)ccc4c3)C2)cc1 (stereo not drawn),inconclusive: -51.1%
19,O=C(COC(=O)c1ccc[nH]c1=O)NCCc1ccc(F)cc1,inactive: 2.49%
20,CN(CC(=O)Nc1ccc(N2CCOCC2)cc1)CC(=O)Nc1ccc(Cl)cc1[N+](=O)[O-],inactive: 6.83%
